Reference: PubChem BioAssay AID540303 (National Center for Advancing Translational Sciences (NCATS), 2011)
The campaign covered roughly 330,000 compounds. About 1,000 (0.3%) were called active. The shares of active, inactive and inconclusive entries below differ from those in the screen. Calls come from the whole dose curve; as a rule, active = well fitted inhibition curve with a large enough effect; inconclusive = small, poorly fitted or top-dose-only effect; inactive = no such curve, though single readings can be large or run the other way; tested in mouse RAW 264.7 cells. Where the call is inconclusive, the potency comes from a doubtful curve fit.

Assay: qHTS for Inhibitors of Cell Surface uPA Generation; note: nearly all actives have a fitted effect of over 55% in size
Conditions: cell surface uPA generation assay; series mostly up to 38.3 µM
Outline: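 RAW 264.7 cells, 4000/well, given compound (1:5 dilutions, up to 38.3 uM final) and incubated 24 h at 37 C. Blocked uPA-dependent LF entry keeps ATP high; ATPlite luminescence read, 5 s exposure.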
Potency is the fitted concentration of half-maximal effect.

SMILES	Potency
O=C(NCc1nnnn1-c1ccc(F)c(F)c1)c1ccc(S(=O)(=O)N2CCOCC2)cc1	inconclusive: 7.94 µM [inhibitor, single point]
Cc1c(C(=O)OC2CCCC2)[nH]c2c1C(=O)CC(c1ccco1)C2 (stereo unspecified)	inconclusive: 0.501 µM [inhibitor, full curve, poor fit]
CSc1ccc2c(c1)C(N1CCN(C)CC1)Cc1ccccc1S2 (stereo unspecified)	inconclusive: 11.2 µM [inhibitor, partial curve, poor fit]
CCCCN1C(=O)/C(=C/C=C2/CC(C)(C)CN2C)SC1=S	inactive
CCCCN(C(=O)c1ccc(-c2ccc(Cl)cc2)o1)c1c(N)n(CCCC)c(=O)[nH]c1=O	inconclusive: 0.316 µM [inhibitor, partial curve, poor fit]
OC1CCCN(C(=S)NCc2ccccc2)C1 (stereo unspecified)	inactive
Cc1cc(NC(=O)CSc2nc(C(C)(C)C)nc3ccccc23)no1	inconclusive: 1.78 µM [inhibitor, partial curve, poor fit]
COc1ccc2[nH]cc(C(=O)CCl)c2c1	inconclusive: 20 µM [inhibitor, single point]
O=S(=O)(c1cc(Cl)ccc1Cl)N1CCc2ccccc21	inconclusive: 11.2 µM [inhibitor, partial curve, poor fit]
Cc1ccc(S(=O)(=O)N2CCOC2CNC(=O)C(=O)NCCCc2ccccc2)cc1 (stereo unspecified)	inconclusive: 12.6 µM [inhibitor, single point]
CC(=O)c1ccc(NC(=S)N2CCN(S(=O)(=O)c3ccc(F)cc3)CC2)cc1	inactive
C[C@H](NC(=O)c1nc[nH]c1C(=O)N[C@@H](CCCCNC(=O)OC(C)(C)C)C(=O)OC(C)(C)C)C(=O)OCc1ccccc1	inconclusive: 12.6 µM [inhibitor, single point]
CC(C(=O)Nc1ccccc1Br)c1ccc([N+](=O)[O-])cc1 (stereo unspecified)	inconclusive: 8.91 µM [inhibitor, partial curve, poor fit]
COc1ccc(Nc2nnc(SCC(=O)Nc3ccc4[nH]c(=O)[nH]c4c3)s2)cc1	inconclusive: 7.08 µM [inhibitor, partial curve, poor fit]
O=c1[nH]c(O)c(/C=C2\C=Nc3ccc(Br)cc32)[nH]1	inconclusive: 5.62 µM [inhibitor, partial curve, poor fit]
Fc1cc(F)nc(NCc2ccccc2)n1	inconclusive: 3.16 µM [inhibitor, partial curve, poor fit]
CCn1cc(CNC(=S)Nc2cccc(Cl)c2C)cn1	inactive
Cc1cc(C)c2[nH]c3nc(SCC(=O)O)nnc3c2c1	inactive
CN1CCN(C(c2ccccn2)c2cc(Cl)c3cccnc3c2O)CC1 (stereo unspecified)	inconclusive: 11.2 µM [inhibitor, single point]
COc1ccc2c(c1OC)C(=O)OC2C1c2c(cc3c(c2OC)OCO3)CCN1C (stereo unspecified)	inconclusive: 12.6 µM [inhibitor, single point]
Cc1cc(N)ccc1N=Nc1c(C)n(C)n(-c2ccccc2)c1=O	inconclusive: 12.6 µM [inhibitor, single point]
O=C(N/N=C/c1ccccn1)c1sc2ccccc2c1Cl	inconclusive: 8.91 µM [inhibitor, single point]
COc1cc(SC)ccc1C(=O)Nc1ncc(C)s1	active: 3.55 µM
Cc1[nH]c2ccccc2c1C(=O)C(C)OC(=O)C1CCC1 (stereo unspecified)	inactive

A draw from above in order of length of the SMILES, smallest number first:
SMILES	Potency
O=C(N/N=C/c1ccccn1)c1sc2ccccc2c1Cl	inconclusive: 8.91 µM [inhibitor, single point]
Cc1cc(N)ccc1N=Nc1c(C)n(C)n(-c2ccccc2)c1=O	inconclusive: 12.6 µM [inhibitor, single point]
COc1ccc(Nc2nnc(SCC(=O)Nc3ccc4[nH]c(=O)[nH]c4c3)s2)cc1	inconclusive: 7.08 µM [inhibitor, partial curve, poor fit]

Next results follow.

SMILES	Potency
Cc1ccc(S(=O)(=O)N2CCN(C(=O)CN3C(=O)NC(C)(c4ccc(Cl)cc4)C3=O)CC2)c(C)c1 (stereo unspecified)	inconclusive: 12.6 µM [inhibitor, single point]
O=C1[C@H](Cc2ccccc2)NCC=CC[C@@H](c2ccc(Cl)cc2)N1Cc1ccc(Cl)cc1	inconclusive: 12.6 µM [inhibitor, partial curve, poor fit]
CC(C)N1CCc2c(sc(NC(=O)c3ccc(S(=O)(=O)N4CCOCC4)cc3)c2C#N)C1	inactive
CN1CCN(c2nc(-c3ccccc3Cl)nc3ccccc23)CC1	inactive
Cc1ccc2nc(SCC(=O)Nc3ccccc3N3CCOCC3)c(C#N)cc2c1	inactive
CC(C)c1nc(SCC(=O)Nc2ccc([N+](=O)[O-])cc2Br)n[nH]1	inactive
Cc1cc2c(c(=O)o1)C(C(C)C)C(C#N)=C(N)O2 (stereo unspecified)	inactive
COC(=O)C1=C(Nc2ccccc2NC(=O)c2ccccc2C(=O)O)CSC1	inconclusive: 15.8 µM [inhibitor, single point]
COc1ccc(/C=N/NC(=O)c2ccncc2)c(OC)c1	inactive
CCCN(CC(=O)Nc1ccc(F)c(F)c1F)C(=O)Cc1ccc(OC)c(S(=O)(=O)N2CCOCC2)c1	inactive
CCOc1ccc(CNC(=O)c2ccc(Sc3ccc(Cl)cc3)c(NC(C)=O)c2)cc1OC	inactive
C=CCc1cccc(/C=N/NC(=O)c2ccccc2OC)c1O	inconclusive: 10 µM [inhibitor, single point]
Cc1ccccc1CS(=O)(=O)c1ncc(Cl)c(C(=O)Nc2ccc(F)cc2)n1	inconclusive: 1.12 µM [inhibitor, single point]
CC(C)N(C(=O)Nc1ccc2nsnc2c1)C(C)C	inconclusive: 7.08 µM [inhibitor, single point]
CC1C/C(=C/c2ccncc2)C(=O)/C(=C/c2ccncc2)C1 (stereo unspecified)	active: 3.55 µM
COCCNC(=O)c1cc(-c2ccccc2OC)on1	active: 7.08 µM
COc1ccccc1NS(=O)(=O)c1cc(-c2cnc(C3CC3)o2)ccc1C	inconclusive: 4.47 µM [inhibitor, partial curve, poor fit]
COc1ccc(/C=N/NC(=O)c2c(C)nc3ccc(Cl)cn23)cc1OC	inconclusive: 10 µM [inhibitor, partial curve, poor fit]
O=C(Cn1nnc(-c2ccc(N3CCOCC3)cc2)n1)N1CCOCC1	active: 4.47 µM
Oc1ccc(/C=N/N2CCN(c3ccccn3)CC2)cc1	inconclusive: 11.2 µM [inhibitor, partial curve, poor fit]
Cc1cc(-n2c(SCC(=O)Nc3ccc(F)c(F)c3)nc3n[nH]c(C)c3c2=N)ccc1Cl	inconclusive: 1 µM [inhibitor, single point]
Cc1ccc(O)c(N=Nc2ccccc2)n1	inconclusive: 11.2 µM [inhibitor, single point]
COC(=O)CC1c2ccccc2S(=O)(=O)N1Cc1ccccc1 (stereo unspecified)	inconclusive: 1.12 µM [inhibitor, partial curve, poor fit]
COc1ccc(-c2ncncc2-c2ccccc2)c(O)c1	inactive

SMILES	Potency
COc1ccc(S(=O)(=O)Nc2cccc3c2O[C@H](CN(C)Cc2ccc(-c4ccccc4)cc2)[C@@H](C)CN([C@H](C)CO)C3=O)cc1	inconclusive: 5.01 µM [inhibitor, single point]
CN(C(=O)c1ccccc1C(=O)OCC(=O)Nc1ccc(OC(F)F)cc1)c1ccccc1	inconclusive: 25.1 µM [inhibitor, partial curve, poor fit]
O=C1c2ccccc2S(=O)(=O)c2cc(N3CCC4(CC3)OCCO4)ccc21	inconclusive: 5.01 µM [inhibitor, partial curve]
CN(CC(=O)Nc1ccc(F)c(Cl)c1)S(=O)(=O)c1ccc2c(c1)n(C)c(=O)c(=O)n2C	inactive
Cc1cc(C2=NNC(=NC3CC3)SC2)c(C)n1-c1ccccc1F	active: 1.58 µM
CC[C@]12c3[nH]c4ccc(OC)cc4c3CCN1C(=O)C(CC(=O)NC/C=C(\C)CCC=C(C)C)C[C@@H]2C(=O)N1CCN(C(=O)C2CC2)CC1 (stereo partly specified)	inconclusive: 20 µM [inhibitor, single point]
CCN(CC)CCNC(=O)c1ccc(NC(=O)/C=C/c2ccc3ccccc3n2)cc1	inconclusive: 28.2 µM [inhibitor, single point]
CC(NS(=O)(=O)c1ccc(Br)cc1)C(c1cccs1)N1CCOCC1 (stereo unspecified)	inactive
Cc1ccc2cc(C#N)c(N3CCN(C(=O)c4ccccc4)CC3)nc2c1	inconclusive: 3.16 µM [inhibitor, single point]
C[C@H](NC(=O)C1CC(=O)N(c2ccc3c(c2)OCO3)C1)C(=O)NC1CCCC1 (stereo partly specified)	inactive
CSc1ccccc1NC(=O)CN1CCN(c2ccccn2)CC1	inactive
Cc1ccc(C(=O)C2=C(O)C(=O)N(Cc3ccco3)C2c2cccc(Cl)c2)o1 (stereo unspecified)	inactive
CCN(CC)C(=O)c1ccc2nc(-c3ccccc3)c(-c3ccccc3)nc2c1	inactive
O=C(CSc1ccc2ccccc2c1)N1CCN(c2ccc(O)cc2)CC1	inconclusive: 2.82 µM [inhibitor, partial curve, poor fit]
Cc1cc([N+](=O)[O-])ccc1N	inactive
O=C(Nc1ccc(F)cc1)Nc1nnc(Cc2ccccc2F)s1	inactive
COc1ccc(C)c2sc(=NC(=O)c3cccc(N4C(=O)CCC4=O)c3)n(C)c12	inconclusive: 1.12 µM [inhibitor, full curve, poor fit]
COc1cc(NC(=S)N2c3ccccc3CC2C)cc(OC)c1 (stereo unspecified)	inactive
O=C(NCC(=O)N1CC=C(c2ccccc2)CC1)c1ccco1	inconclusive: 10 µM [inhibitor, single point]
COc1ccc2[nH]c(C)c(CCN(Cc3cccs3)C(=S)Nc3ccccc3)c2c1	inconclusive: 12.6 µM [inhibitor, single point]
CC(=O)c1c(C)[nH]c(C(=O)COC(=O)CCCOc2ccccc2)c1C	inactive
Nc1ccccc1S(=O)(=O)C(F)F	inactive
CCCCCOc1ccc(/C(C)=N/NC2=NCCN2)cc1	inconclusive: 14.1 µM [inhibitor, single point]
